# Measured values taken from the supplement of paper PMC11732987, “Enantioselective OTUD7B fragment discovery through chemoproteomics screening and high-throughput optimisation” (Communications Chemistry, 2025).
# The list shows a part of the results. The data scatter; read single values as rough.
# Tested on: T1, ZNF784 C301
# T1 sequence (whole entry): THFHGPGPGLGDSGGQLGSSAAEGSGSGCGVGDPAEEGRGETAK
# Assay: log2 mean competition ratio of IA-DTB cysteine labelling (DMSO/compound) (log2 ratio); higher = stronger cysteine engagement by compound
# Details: 50 µM; treatment time: 4 h; cell line lysate: HEK293T
# Method: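 IA-DTB competitive cysteine chemoproteomics in HEK293T RIPA lysate. Lysates were treated with compound 29 or 30 at 50 or 200 µM for 4 h, then IA-DTB (500 µM, 1 h), trypsin-digested, NeutrAvidin-enriched and analysed by diaPASEF. Competition ratio = intensity DMSO / intensity compound (n=4 treated, n=64 DMSO); binding: mean log2 CR ≥ 1 and p ≤ 0.05 plus QC filters. Target is the cysteine site.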
row,SMILES,log2 mean competition ratio
1,O=C(CCl)N[C@H]1CCCc2ccccc21,-0.165
2,O=C(CCl)N[C@@H]1CCCc2ccccc21,-0.139

# Same assay, conditions: 200 µM; treatment time: 4 h; cell line lysate: HEK293T
row,SMILES,log2 mean competition ratio
1,O=C(CCl)N[C@H]1CCCc2ccccc21,-0.671
2,O=C(CCl)N[C@@H]1CCCc2ccccc21,-0.511
